Test results as given in PubChem BioAssay AID1487 (National Center for Advancing Translational Sciences (NCATS), 2009).
This is one part of the list. Shown are side measurements of this screen, not its main read-out; they come without a call. Compounds called inactive in the main read-out are mostly missing here. The note in brackets gives the kind of curve behind each potency; many fits are weak.

Experiment: qHTS Assay for Modulators of Lamin A Splicing
Conditions: HeLa LMNA splicing GFP/RFP minigene ratio, 48 h
Outline: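 Read-out is the ratio of GFP to DsRed2 object intensity, acquired by 488 nm laser-scanning cytometry on HeLa lamin A-EGFP minigene reporter cells. Compound incubation 48 hrs at 37 °C in Opti-MEM with 2% FBS; DMSO 0.5% final.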

[1] = measured here: GFP splicing reporter channel
[2] = measured here: RFP viability control channel

SMILES | AC50 [1] | AC50 [2]
CC(C)(C)N=C1C([N+](=O)[O-])=CC=C2C1=NC1(CCCCC1)N2O | 0.00794 µM [falling, full curve, poor fit] | 5.62 µM [falling, full curve, poor fit]
c1ccc(-c2csc3ncnc(NCCN4CCOCC4)c23)cc1 | 20 µM [rising, single point] | 31.6 µM [rising, single point]
CCC(C)(C)n1nnnc1CN1CCN(c2ccc(OC)cc2)CC1 |  | 1.58 µM [falling, full curve, poor fit]
O=C(NC1CC1)c1cccc(Nc2ccc(-c3ccc4c(c3)OCCO4)nn2)c1 |  | 20 µM [rising, single point]
O=C(NC12CC3CC(CC(C3)C1)C2)c1ccc(-c2ccc(Br)cc2)o1 |  | 28.2 µM [rising, single point]
Cc1ccc(CN(Cc2ccco2)C(=S)Nc2ccccc2C)cc1 | 0.0631 µM [falling, full curve, poor fit] | 
OC(CN1CCN(c2ccccn2)CC1)Cn1c2ccc(Cl)cc2c2cc(Cl)ccc21 (stereo unspecified) | 35.5 µM [falling, single point] | 35.5 µM [falling, single point]
Cc1cc(N=Cc2c(O)ccc3cc(Br)ccc23)no1 | 17.8 µM [rising, single point] | 31.6 µM [rising, single point]
COC(=O)CN1C(=S)N(c2ccc(Cl)cc2)C(=O)C1CC(=O)Nc1ccc(Cl)cc1 (stereo unspecified) |  | 5.62 µM [rising, partial curve]
COc1ccc(/C=N/Nc2ncnc3sc(C)c(C)c23)cc1 |  | 17.8 µM [rising, partial curve]
COc1ccc(/C=C/C(=O)c2ccc(OC)cc2O)cc1 |  | 12.6 µM [rising, partial curve]
C=CCc1cccc(C2Nc3ccccc3C(=O)N2O)c1O (stereo unspecified) | 35.5 µM [falling, single point] | 
COC(=O)[C@@H]1C[C@H]1[C@@H](NS(=O)(=O)c1ccccc1)c1ccccc1 |  | 10 µM [rising, partial curve]
Cc1nc([N+](=O)[O-])c(Br)n1CC(=O)c1ccc2ccccc2c1 | 25.1 µM [falling, single point] | 35.5 µM [falling, partial curve]
Cn1c(=O)c(C(=O)CSc2ccccc2)c(N)n(Cc2ccccc2)c1=O | 22.4 µM [falling, partial curve, poor fit] | 35.5 µM [falling, single point]
COc1ccc(CCNc2cc(C)nc3c(-c4ccc(Cl)cc4)cnn23)cc1OC |  | 35.5 µM [rising, single point]
COc1cccc(C2=C(C(C)=O)Sc3nncn3N2C(C)=O)c1 | 39.8 µM [falling, partial curve, poor fit] | 
O=C1C=C(Nc2ccccc2O)c2ccccc2C1=O | 35.5 µM [falling, single point] | 35.5 µM [falling, single point]
COc1ccccc1CNc1nc(-c2ccccc2OC)nc2ccccc12 | 11.2 µM [falling, partial curve] | 15.8 µM [falling, partial curve]
CCN(CC)S(=O)(=O)c1ccc(NC(=O)CSc2ncnc3ccccc23)cc1 |  | 11.2 µM [rising, partial curve, poor fit]
CCCCc1c(C)c(C#N)c2[nH]c3ccccc3n2c1=O |  | 14.1 µM [rising, partial curve]
Oc1ccc(CNc2ccc(F)cc2)c2cccnc12 |  | 31.6 µM [rising, single point]
CC(=O)Nc1ccc(NC(=O)c2ccc(NS(=O)(=O)c3cc(C(C)(C)C)cc(C)c3C)cc2)cc1 | 8.91 µM [rising, partial curve] | 12.6 µM [rising, single point]
COc1cccc(NC(=O)CSc2nc3ccc(NC(=O)c4cccs4)cc3s2)c1 | 0.112 µM [falling, full curve] | 0.0112 µM [falling, full curve, poor fit]
Cc1ncc([N+](=O)[O-])n1CCO | 1.41 µM [rising, partial curve, poor fit] | 2.51 µM [rising, single point]
Cc1ccccc1N1CC(C(=O)Nc2nnc(SCC(=O)Nc3nccs3)s2)CC1=O (stereo unspecified) | 15.8 µM [rising, partial curve, poor fit] | 
O=C(Nc1cccc(Br)c1)c1ccc2nc(N3C(=O)CCC3=O)sc2c1 | 12.6 µM [falling, single point] | 35.5 µM [falling, single point]

SMILES | AC50 [1] | AC50 [2]
COc1ccc(NC(=S)NCCc2ccc(Cl)cc2)c(OC)c1 | 31.6 µM [rising, single point] | 35.5 µM [rising, single point]
COC(=O)C(C)(C)ONC(=O)Nc1ccccc1Br | 4.47 µM [rising, full curve, poor fit] | 
O=C(NNC(=O)c1ccccc1Br)c1cccc(Cl)c1 | 31.6 µM [rising, single point] | 
Cc1ccc(NS(=O)(=O)c2ccc(Cl)c(C(=O)Nc3ccccc3-c3nc4ccccc4[nH]3)c2)cc1C | 17.8 µM [rising, single point] | 22.4 µM [rising, partial curve]
COc1cccc(-c2cc(C(=O)Nc3c(C)nn(Cc4ccccc4C)c3C)no2)c1 | 11.2 µM [rising, single point] | 15.8 µM [rising, single point]
CCOC(=O)C1(Cc2ccccc2C(F)(F)F)CCN(C(=O)c2cc(C)n(C)n2)CC1 |  | 22.4 µM [falling, single point]
Nc1ccc(C(=O)N/N=C\C=C\c2ccc([N+](=O)[O-])cc2)cc1 | 22.4 µM [rising, partial curve, poor fit] | 
Cc1ccc(-n2ncc(C(=O)NCCN3CCCC3)c2C2CCN(C(=O)OC(C)(C)C)CC2)cc1C | 35.5 µM [falling, single point] | 
CCOC(=O)c1c(CSC(=N)N)n(-c2ccc(Br)cc2)c2cc(Br)c(OC(C)=O)cc12 | 22.4 µM [falling, single point] | 22.4 µM [falling, partial curve, poor fit]
CCn1cc(C(=O)O)c(=O)c2cc(F)c(N/N=C/c3ccccc3)cc21 |  | 12.6 µM [rising, partial curve]
COc1ccc(C(=O)Cc2ccc(OC)c(OC)c2)c(OC)c1 |  | 14.1 µM [rising, single point]
Cc1occc1C(=O)N/N=C/C(Br)=C/c1ccccc1 | 31.6 µM [falling, partial curve, poor fit] | 
CN(C)CCCNc1c2c(c(C#N)c3nc4ccccc4n13)CCC2 | 10 µM [rising, partial curve, poor fit] | 12.6 µM [rising, single point]
COc1ccc(-c2n[nH]c(=S)n2/N=C/C=C/c2ccccc2OC)cc1 |  | 3.16 µM [rising, single point]
CCOC(=O)c1[nH]c2ccc(OC)cc2c1NC(=O)CCN1CCSCC1 | 10 µM [rising, single point] | 8.91 µM [rising, partial curve]
Cc1ccc(-c2cn(-c3ccc(SC(F)F)cc3)c3[n+]2CCC3)cc1 |  | 5.01 µM [rising, full curve, poor fit]
CCOC(=O)N1CCN(C(=O)c2cc(COc3ccc4ncccc4c3)on2)CC1 | 1.41 µM [falling, full curve, poor fit] | 1.26 µM [falling, full curve]
CCc1nnc(NC(=O)c2ccc(Cl)c(S(=O)(=O)N3CCc4ccccc4C3)c2)s1 |  | 3.55 µM [rising, partial curve]
Nc1ccc2c(c1)OC1(CCCCC1)O2 |  | 17.8 µM [falling, single point]
CC(C)c1ccc(Nc2ncnc3onc(-c4ccc(F)cc4)c23)cc1 |  | 35.5 µM [rising, single point]
COc1ccc(NC(=O)c2cc3c(=O)n(C)c4ccccc4c3n2C)cc1OC |  | 22.4 µM [rising, single point]
O=C(/C=C/c1ccco1)Nc1nc(-c2ccccc2)cs1 | 11.2 µM [rising, partial curve] | 12.6 µM [rising, partial curve]
CCc1nnc(NC(=O)CSc2nc(-c3ccccc3)cc(-c3ccc(F)cc3)c2C#N)s1 | 3.55 µM [falling, full curve] | 3.98 µM [falling, full curve]
CSCC[C@H](NC(=O)OC(C)(C)C)c1nnc(SCc2ccc(F)cc2)o1 |  | 25.1 µM [rising, single point]
Cc1c(C(=O)N2CCOCC2)[nH]c2ccc(OCc3ccccc3)cc12 |  | 31.6 µM [rising, single point]
Cc1ccc(OCCNC(=O)c2cccc(Oc3ccc(C(F)(F)F)cc3[N+](=O)[O-])c2)cc1 | 2.82 µM [rising, single point] | 2.51 µM [rising, full curve]
Cc1cc(C(=O)N2CCN(c3cccc(C)c3C)CC2)c2c(C)nn(-c3ccccc3)c2n1 |  | 20 µM [rising, partial curve, poor fit]

Ordered by heavy-atom count (largest number first): part of the list above.
SMILES | AC50 [1] | AC50 [2]
CCc1nnc(NC(=O)CSc2nc(-c3ccccc3)cc(-c3ccc(F)cc3)c2C#N)s1 | 3.55 µM [falling, full curve] | 3.98 µM [falling, full curve]
Cn1c(=O)c(C(=O)CSc2ccccc2)c(N)n(Cc2ccccc2)c1=O | 22.4 µM [falling, partial curve, poor fit] | 35.5 µM [falling, single point]
Cc1ccc(-c2cn(-c3ccc(SC(F)F)cc3)c3[n+]2CCC3)cc1 |  | 5.01 µM [rising, full curve, poor fit]
